# Assay results reported in the supplement of paper PMC10849652.
# Chains of the proteins cited; added tags and fusions are not shown. Lines headed by an entry give the natural chain unless they say otherwise; changes in a name come on top.
# UniProt O15084: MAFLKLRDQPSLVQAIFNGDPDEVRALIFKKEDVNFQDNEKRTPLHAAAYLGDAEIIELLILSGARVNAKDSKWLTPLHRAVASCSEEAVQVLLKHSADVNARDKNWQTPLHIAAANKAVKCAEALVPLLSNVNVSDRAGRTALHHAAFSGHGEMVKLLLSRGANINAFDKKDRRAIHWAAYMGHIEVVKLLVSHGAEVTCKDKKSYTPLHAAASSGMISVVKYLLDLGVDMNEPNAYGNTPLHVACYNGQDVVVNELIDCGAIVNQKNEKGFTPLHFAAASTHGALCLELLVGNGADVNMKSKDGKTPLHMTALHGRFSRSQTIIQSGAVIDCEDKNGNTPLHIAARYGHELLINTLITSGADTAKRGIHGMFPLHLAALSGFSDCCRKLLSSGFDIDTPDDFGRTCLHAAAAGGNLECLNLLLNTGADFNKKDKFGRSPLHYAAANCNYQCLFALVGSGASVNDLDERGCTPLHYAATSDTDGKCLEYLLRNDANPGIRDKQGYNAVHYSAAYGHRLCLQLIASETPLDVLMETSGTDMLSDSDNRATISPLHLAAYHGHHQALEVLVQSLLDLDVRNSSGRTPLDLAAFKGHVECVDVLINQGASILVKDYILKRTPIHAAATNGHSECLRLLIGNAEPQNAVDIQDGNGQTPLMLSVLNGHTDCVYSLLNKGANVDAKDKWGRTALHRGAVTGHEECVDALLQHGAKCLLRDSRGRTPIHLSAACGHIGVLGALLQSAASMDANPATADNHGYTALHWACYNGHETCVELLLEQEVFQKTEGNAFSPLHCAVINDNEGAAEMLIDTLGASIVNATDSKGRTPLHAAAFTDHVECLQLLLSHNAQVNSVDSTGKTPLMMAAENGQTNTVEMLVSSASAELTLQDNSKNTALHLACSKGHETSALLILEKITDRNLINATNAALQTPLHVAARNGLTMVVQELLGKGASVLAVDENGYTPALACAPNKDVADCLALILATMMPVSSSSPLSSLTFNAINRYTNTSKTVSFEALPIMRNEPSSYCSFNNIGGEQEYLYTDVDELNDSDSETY
# UniProt Q01433: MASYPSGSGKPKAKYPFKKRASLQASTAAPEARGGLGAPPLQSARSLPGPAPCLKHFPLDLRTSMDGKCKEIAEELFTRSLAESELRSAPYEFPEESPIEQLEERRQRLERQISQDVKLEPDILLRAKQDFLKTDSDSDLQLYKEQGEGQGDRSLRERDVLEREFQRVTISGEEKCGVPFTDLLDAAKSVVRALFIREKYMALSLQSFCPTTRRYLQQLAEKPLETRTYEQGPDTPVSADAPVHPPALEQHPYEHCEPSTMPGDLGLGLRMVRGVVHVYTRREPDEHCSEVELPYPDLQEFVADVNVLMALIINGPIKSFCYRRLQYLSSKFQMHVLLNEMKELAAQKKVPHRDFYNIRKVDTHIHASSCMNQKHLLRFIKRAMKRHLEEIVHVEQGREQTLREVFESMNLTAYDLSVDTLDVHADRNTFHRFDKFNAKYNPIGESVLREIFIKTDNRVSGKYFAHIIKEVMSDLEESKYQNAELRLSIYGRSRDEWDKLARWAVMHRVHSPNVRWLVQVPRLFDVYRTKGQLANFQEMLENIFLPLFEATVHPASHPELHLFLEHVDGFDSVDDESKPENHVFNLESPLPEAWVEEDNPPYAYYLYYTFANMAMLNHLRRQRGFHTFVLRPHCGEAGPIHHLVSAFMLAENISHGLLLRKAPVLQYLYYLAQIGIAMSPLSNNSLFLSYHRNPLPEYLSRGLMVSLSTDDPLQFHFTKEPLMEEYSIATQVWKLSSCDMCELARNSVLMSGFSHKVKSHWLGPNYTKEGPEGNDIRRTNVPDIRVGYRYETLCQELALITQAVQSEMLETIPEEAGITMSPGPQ
# UniProt Q63HQ0: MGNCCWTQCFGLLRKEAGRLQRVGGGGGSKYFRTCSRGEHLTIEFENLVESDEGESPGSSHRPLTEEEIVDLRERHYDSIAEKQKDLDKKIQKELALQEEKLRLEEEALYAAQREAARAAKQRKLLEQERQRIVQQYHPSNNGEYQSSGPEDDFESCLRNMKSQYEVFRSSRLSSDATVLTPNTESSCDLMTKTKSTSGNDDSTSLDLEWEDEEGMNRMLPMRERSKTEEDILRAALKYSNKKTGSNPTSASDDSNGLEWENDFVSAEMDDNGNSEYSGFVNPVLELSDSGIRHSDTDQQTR
# UniProt Q9H1A4, whole entry, looked up: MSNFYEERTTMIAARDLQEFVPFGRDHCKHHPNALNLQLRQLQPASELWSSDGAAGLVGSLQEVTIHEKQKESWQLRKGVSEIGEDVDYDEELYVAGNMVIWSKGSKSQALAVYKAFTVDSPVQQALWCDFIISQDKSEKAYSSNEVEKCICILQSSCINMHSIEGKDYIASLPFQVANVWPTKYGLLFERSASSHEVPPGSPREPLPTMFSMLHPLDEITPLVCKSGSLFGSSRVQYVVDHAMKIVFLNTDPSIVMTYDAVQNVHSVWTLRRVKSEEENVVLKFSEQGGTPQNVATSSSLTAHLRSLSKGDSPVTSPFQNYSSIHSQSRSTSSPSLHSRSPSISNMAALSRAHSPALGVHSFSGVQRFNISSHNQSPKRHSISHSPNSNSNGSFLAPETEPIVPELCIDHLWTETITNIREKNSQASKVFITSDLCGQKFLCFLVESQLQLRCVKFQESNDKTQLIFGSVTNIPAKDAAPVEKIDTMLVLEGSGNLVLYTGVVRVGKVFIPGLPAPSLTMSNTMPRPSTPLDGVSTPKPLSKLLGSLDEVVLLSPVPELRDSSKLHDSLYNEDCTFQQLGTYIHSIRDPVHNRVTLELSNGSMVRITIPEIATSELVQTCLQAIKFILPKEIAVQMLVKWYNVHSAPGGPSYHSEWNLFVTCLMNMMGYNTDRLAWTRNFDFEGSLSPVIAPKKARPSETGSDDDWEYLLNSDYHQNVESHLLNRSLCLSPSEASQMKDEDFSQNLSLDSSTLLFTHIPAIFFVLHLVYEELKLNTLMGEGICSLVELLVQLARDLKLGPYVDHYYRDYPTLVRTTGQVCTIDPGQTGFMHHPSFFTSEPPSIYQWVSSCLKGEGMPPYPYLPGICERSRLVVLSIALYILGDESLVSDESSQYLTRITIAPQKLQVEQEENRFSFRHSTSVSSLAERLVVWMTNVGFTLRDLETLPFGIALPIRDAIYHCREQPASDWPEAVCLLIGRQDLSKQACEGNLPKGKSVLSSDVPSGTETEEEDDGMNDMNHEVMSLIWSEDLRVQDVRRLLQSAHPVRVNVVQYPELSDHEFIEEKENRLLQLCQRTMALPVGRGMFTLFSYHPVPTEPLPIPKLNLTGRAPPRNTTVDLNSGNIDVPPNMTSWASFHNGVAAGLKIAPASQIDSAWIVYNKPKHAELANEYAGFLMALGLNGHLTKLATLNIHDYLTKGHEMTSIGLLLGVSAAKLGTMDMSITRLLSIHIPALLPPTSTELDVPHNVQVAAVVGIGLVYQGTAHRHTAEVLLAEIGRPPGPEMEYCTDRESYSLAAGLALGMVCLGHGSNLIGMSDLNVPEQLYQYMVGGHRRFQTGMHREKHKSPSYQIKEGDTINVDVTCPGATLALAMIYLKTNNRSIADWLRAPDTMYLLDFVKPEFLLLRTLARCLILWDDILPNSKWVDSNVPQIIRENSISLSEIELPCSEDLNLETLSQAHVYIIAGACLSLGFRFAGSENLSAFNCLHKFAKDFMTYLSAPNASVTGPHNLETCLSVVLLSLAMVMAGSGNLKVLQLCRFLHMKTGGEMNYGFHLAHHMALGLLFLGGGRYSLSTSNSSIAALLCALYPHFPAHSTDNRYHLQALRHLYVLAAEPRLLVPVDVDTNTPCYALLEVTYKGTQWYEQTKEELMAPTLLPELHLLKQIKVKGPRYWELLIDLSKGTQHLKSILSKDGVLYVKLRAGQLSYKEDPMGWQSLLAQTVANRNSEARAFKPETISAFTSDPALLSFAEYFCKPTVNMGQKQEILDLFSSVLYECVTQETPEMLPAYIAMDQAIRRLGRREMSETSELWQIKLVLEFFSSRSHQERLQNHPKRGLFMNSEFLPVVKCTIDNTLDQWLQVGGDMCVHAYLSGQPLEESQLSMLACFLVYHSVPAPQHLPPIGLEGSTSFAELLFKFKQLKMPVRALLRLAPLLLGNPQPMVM
# UniProt Q6ZW76: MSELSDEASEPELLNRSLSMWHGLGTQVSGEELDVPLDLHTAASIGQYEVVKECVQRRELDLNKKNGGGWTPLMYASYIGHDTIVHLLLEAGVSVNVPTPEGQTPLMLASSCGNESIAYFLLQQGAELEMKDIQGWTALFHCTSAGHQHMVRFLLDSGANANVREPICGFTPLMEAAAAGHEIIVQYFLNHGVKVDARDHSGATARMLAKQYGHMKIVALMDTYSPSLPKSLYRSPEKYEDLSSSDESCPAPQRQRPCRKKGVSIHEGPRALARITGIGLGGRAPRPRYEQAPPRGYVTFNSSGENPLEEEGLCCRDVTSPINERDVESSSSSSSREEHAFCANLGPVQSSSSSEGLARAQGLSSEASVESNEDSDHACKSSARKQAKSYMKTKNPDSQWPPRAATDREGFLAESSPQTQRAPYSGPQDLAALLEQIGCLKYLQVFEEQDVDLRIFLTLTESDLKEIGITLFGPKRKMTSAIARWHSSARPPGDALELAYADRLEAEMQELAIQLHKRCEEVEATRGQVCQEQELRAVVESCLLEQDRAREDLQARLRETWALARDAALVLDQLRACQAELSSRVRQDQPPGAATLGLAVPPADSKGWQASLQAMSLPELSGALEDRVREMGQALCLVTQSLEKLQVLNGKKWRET
# UniProt Q02252: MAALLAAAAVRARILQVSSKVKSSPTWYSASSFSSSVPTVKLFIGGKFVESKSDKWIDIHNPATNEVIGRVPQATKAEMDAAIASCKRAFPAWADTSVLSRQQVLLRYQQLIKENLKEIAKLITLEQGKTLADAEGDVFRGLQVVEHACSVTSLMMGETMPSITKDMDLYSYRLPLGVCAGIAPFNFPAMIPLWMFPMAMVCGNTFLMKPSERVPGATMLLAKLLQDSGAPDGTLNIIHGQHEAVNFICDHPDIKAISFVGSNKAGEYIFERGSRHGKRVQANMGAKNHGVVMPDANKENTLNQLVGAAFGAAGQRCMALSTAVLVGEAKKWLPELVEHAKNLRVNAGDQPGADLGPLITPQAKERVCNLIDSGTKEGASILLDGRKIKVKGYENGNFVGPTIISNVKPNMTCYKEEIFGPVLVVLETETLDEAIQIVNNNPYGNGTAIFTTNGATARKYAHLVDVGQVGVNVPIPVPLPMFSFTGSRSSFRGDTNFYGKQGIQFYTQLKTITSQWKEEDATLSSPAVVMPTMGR
# UniProt Q9Y2T2: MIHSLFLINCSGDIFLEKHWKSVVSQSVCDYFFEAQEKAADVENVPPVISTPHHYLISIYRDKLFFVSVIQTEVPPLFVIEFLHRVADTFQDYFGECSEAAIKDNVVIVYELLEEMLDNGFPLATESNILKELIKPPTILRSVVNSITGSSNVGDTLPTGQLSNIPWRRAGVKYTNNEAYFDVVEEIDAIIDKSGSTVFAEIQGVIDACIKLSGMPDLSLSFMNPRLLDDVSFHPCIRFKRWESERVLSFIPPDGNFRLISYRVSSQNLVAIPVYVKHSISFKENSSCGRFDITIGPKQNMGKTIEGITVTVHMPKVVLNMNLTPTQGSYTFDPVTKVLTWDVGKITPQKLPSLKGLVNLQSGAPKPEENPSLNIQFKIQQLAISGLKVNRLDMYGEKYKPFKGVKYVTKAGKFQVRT
# UniProt P04083: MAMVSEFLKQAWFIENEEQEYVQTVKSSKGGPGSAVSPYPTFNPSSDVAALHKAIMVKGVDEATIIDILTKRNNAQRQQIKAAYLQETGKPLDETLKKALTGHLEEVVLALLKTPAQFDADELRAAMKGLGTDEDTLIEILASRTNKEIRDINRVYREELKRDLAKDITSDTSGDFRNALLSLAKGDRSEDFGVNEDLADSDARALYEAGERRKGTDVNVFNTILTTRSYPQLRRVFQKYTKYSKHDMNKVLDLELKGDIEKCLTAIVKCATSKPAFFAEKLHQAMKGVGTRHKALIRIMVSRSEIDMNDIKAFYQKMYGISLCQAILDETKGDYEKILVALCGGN
# UniProt Q9NYG5, whole entry, looked up: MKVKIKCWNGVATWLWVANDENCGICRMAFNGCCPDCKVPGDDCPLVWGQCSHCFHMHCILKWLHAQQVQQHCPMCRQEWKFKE
# UniProt P53677: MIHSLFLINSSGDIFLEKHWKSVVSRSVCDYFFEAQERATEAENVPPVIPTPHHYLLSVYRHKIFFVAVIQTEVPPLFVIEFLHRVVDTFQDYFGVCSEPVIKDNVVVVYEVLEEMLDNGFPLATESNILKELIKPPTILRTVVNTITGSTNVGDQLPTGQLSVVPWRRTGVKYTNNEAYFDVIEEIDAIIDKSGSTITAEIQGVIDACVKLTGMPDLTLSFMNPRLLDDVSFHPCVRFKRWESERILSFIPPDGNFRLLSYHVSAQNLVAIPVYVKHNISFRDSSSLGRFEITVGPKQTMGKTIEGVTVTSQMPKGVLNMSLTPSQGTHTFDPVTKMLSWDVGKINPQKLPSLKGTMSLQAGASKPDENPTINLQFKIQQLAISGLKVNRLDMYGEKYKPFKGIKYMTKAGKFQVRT
# This is one part of the list.
# Tests used:
# Test in all cases: log2 fold change, soluble protein after heating vs DMSO (PISA); higher = thermal stabilisation; K562 lysate, 10 uM; active = over 0.2 and 3.5 SD of the protein, either way, in both replicates (recomputed)
# [1] = compound: C1=CC=C(C=C1)[C@H](COC2=CC3=C(C=C2)NC(=O)N3)NC(=O)C4=CC=CN(C4=O)CC5=CC(=C(C=C5)F)F
# Procedure, shortened: (§1)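 Quantification was by TMTpro 16plex LC-MS/MS with equalised channel sums, applied to the supernatant after 21,000xg for 90 min. Samples were crude K562 extract at 1 mg/mL protein in PBS pH 7.4 with 1 mM MgCl2, treated with 10 μM compound for 30 min, heated for 3 min across 48°C-58°C, pooled and brought to 0.5% NP-40 at 4°C. Values are log-two fold changes in thermal stability relative to solvent controls, from duplicates.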
# [2] = compound: CC1=C(SC2=C1C(=N[C@H](C3=NN=C(N32)C)CC(=O)N)C4=CC=C(C=C4)Cl)C
# Procedure, shortened: as §1
# [3] = compound: CC1=C2C(=CC=C1)N=C(N(C2=O)C3=CC=CC=C3C)CN4C=NC5=C(N=CN=C54)N
# Procedure, shortened: as §1
# [4] = compound: Cc1sc2c(c1C)C(c1ccc(Cl)cc1)=N[C@@H](CC(=O)OC(C)(C)C)c1nnc(C)n1-2
# Procedure, shortened: as §1
# [5] = compound: c1ccc([C@@H]2C[C@H]2NC2CCNCC2)cc1
# Procedure, shortened: as §1
Target,log2 fold change [1],log2 fold change [2],log2 fold change [3],log2 fold change [4],log2 fold change [5]
ANKRD28 (UniProt O15084),inactive: 0.009,inactive: -0.018,inactive: 0.01,inactive: -0.003,inactive: -0.027
ANKRD29 (UniProt Q8N6D5),inactive: -0.102,inactive: -0.114,inactive: 0.178,inactive: -0.19,inactive: -0.196
ALG12 (UniProt Q9BV10),inactive: 0.066,inactive: -0.22,inactive: 0.093,inactive: -0.064,inactive: -0.042
AMMECR1 (UniProt Q9Y4X0),inactive: -0.014,inactive: 0.019,inactive: 0.064,inactive: -0.007,inactive: 0.036
AMPD2 (UniProt Q01433),inactive: 0.013,inactive: 0.011,inactive: 0.018,inactive: -0.007,inactive: -0.013
ANK3 (UniProt Q12955),inactive: -0.012,inactive: -0.007,inactive: -0.011,inactive: 0.031,inactive: -0.01
ALKBH8 isoform 4 (UniProt Q96BT7),inactive: -0.024,inactive: 0,inactive: 0.025,inactive: 0.071,inactive: -0.013
ALG5 (UniProt Q9Y673),inactive: 0.066,inactive: 0.03,inactive: 0.043,inactive: -0.02,inactive: -0.008
ANKRD31 (UniProt Q8N7Z5),inactive: -0.047,inactive: 0.066,,inactive: -0.293,
AP1AR (UniProt Q63HQ0),inactive: 0.143,inactive: -0.022,inactive: 0.024,,inactive: -0.025
ALDH1A2 (UniProt O94788),inactive: 0.008,inactive: -0.012,inactive: -0.024,inactive: -0.019,inactive: 0.009
ANKRD10 (UniProt Q9NXR5),inactive: -0.131,inactive: -0.027,inactive: 0.025,inactive: 0.06,inactive: -0.019
ANAPC1 (UniProt Q9H1A4),inactive: -0.034,inactive: 0.023,inactive: 0.073,inactive: 0.012,inactive: 0.003
ANGPTL4 (UniProt M0R3A2),inactive: -0.007,inactive: 0.11,inactive: 0.003,,inactive: 0.053
ANKS3 (UniProt Q6ZW76),inactive: 0.165,inactive: -0.17,inactive: 0.007,inactive: -0.23,inactive: -0.054
ANKRD30A (UniProt Q9BXX3),inactive: -0.04,inactive: -0.051,,inactive: -0.03,inactive: 0.064
ANKRD13D isoform 3 (UniProt Q6ZTN6),inactive: -0.125,inactive: 0.064,inactive: -0.183,inactive: 0.045,inactive: 0.004
ANKRD44 isoform 2 (UniProt Q8N8A2),inactive: -0.032,inactive: -0.045,inactive: 0.019,,active: -1
ANAPC2 (UniProt Q9UJX6),inactive: 0.009,inactive: -0.011,inactive: 0.026,inactive: -0.03,inactive: 0.004
ALDH6A1 (UniProt Q02252),inactive: 0.011,inactive: -0.111,inactive: 0,inactive: 0.02,inactive: -0.061
ALG3 (UniProt Q92685),inactive: 0.002,inactive: -0.006,inactive: 0.048,inactive: -0.035,inactive: -0.127
AP1S2 (UniProt P56377),inactive: -0.115,inactive: -0.078,inactive: -0.124,,inactive: 0.186
AP3M1 (UniProt Q9Y2T2),inactive: 0.006,inactive: 0.008,inactive: 0,inactive: 0.02,inactive: 0
ALG10B (UniProt Q5I7T1),inactive: 0.016,inactive: 0.069,,inactive: 0.027,inactive: 0.048

Target,log2 fold change [1],log2 fold change [2],log2 fold change [3],log2 fold change [4],log2 fold change [5]
AP2B1 isoform 2 (UniProt P63010),inactive: -0.008,inactive: -0.018,inactive: 0.001,inactive: 0.012,inactive: -0.001
ANXA6 (UniProt P08133),inactive: -0.03,inactive: 0.02,inactive: 0.013,inactive: 0.02,inactive: -0.03
AMDHD2 isoform 3 (UniProt Q9Y303),inactive: 0.049,inactive: 0.016,inactive: 0.031,inactive: 0.037,inactive: -0.043
AP3D1 isoform 5 (UniProt O14617),inactive: 0.042,inactive: -0.027,inactive: 0.003,inactive: 0.025,inactive: -0.028
ALDH1L2 (UniProt Q3SY69),inactive: 0.015,inactive: 0.041,inactive: 0.052,inactive: -0.009,inactive: -0.023
AP2S1 (UniProt P53680),inactive: -0.013,inactive: 0.017,inactive: 0.026,inactive: 0.022,inactive: 0.026
AP3B2 isoform 4 (UniProt Q13367),inactive: -0.007,inactive: 0.027,inactive: -0.024,inactive: 0.057,inactive: 0.023
ANP32E (UniProt Q9BTT0),inactive: 0.043,inactive: -0.005,inactive: -0.053,inactive: -0.038,inactive: 0.026
ANKRD30B (UniProt Q9BXX2),inactive: -0.098,inactive: 0.112,inactive: 0.042,inactive: -0.125,inactive: -0.407
AP1S3 isoform 4 (UniProt Q96PC3),inactive: 0.118,inactive: -0.043,,inactive: -0.054,inactive: -0.044
ALDOA (UniProt P04075),inactive: 0.027,inactive: 0.001,inactive: -0.037,inactive: -0.021,inactive: -0.037
ALDOA (UniProt H3BPS8),inactive: -0.109,inactive: 0.028,inactive: 0.071,,inactive: -0.05
ALG6 (UniProt Q9Y672),inactive: 0.02,inactive: -0.05,inactive: 0.288,inactive: -0.067,inactive: -0.038
ANKRD40 (UniProt Q6AI12),inactive: 0.133,inactive: 0.072,inactive: 0.536,inactive: -0.156,inactive: 0.053
ANXA3 (UniProt P12429),inactive: 0.018,inactive: -0.003,inactive: 0.036,inactive: 0.003,inactive: 0.006
ANKMY2 (UniProt Q8IV38),inactive: -0.007,inactive: 0.009,inactive: 0,inactive: 0.008,inactive: 0.077
ANP32E isoform 3 (UniProt Q9BTT0),inactive: 0.003,inactive: 0.09,inactive: 0.015,,inactive: -0.39
ANAPC5 (UniProt Q9UJX4),inactive: -0.003,inactive: 0.022,inactive: 0.011,inactive: -0.009,inactive: 0.005
ANXA1 (UniProt P04083),inactive: -0.011,inactive: 0.005,inactive: -0.01,inactive: -0.019,inactive: -0.005
ANKRD54 (UniProt Q6NXT1),inactive: 0.011,inactive: -0.04,inactive: 0.038,inactive: -0.042,inactive: -0.024
ANAPC11 (UniProt Q9NYG5),inactive: 0,inactive: -0.063,,inactive: -0.005,inactive: 0.006
AP2A1 (UniProt O95782),inactive: -0.028,inactive: 0.036,inactive: 0.022,inactive: 0.024,inactive: -0.016
AP3M2 (UniProt P53677),inactive: -0.02,inactive: -0.078,inactive: -0.143,inactive: -0.014,inactive: -0.114

# Given tab-delimited: entries from further up.
Target	log2 fold change [1]	log2 fold change [2]	log2 fold change [3]	log2 fold change [4]	log2 fold change [5]
ALDOA (UniProt P04075)	inactive: 0.027	inactive: 0.001	inactive: -0.037	inactive: -0.021	inactive: -0.037
ALDOA (UniProt H3BPS8)	inactive: -0.109	inactive: 0.028	inactive: 0.071		inactive: -0.05
